From patent US20090297503A1 (Chugai, published 2009)
No constants are given. Whether binding was seen depends on the method and setting. Some entries that bind do so weakly or less than the wild type.

Amino acid sequences for entries named in this document (tags omitted). A change or cut given only in a name is not applied to a line headed by its entry.
UniProt P00451: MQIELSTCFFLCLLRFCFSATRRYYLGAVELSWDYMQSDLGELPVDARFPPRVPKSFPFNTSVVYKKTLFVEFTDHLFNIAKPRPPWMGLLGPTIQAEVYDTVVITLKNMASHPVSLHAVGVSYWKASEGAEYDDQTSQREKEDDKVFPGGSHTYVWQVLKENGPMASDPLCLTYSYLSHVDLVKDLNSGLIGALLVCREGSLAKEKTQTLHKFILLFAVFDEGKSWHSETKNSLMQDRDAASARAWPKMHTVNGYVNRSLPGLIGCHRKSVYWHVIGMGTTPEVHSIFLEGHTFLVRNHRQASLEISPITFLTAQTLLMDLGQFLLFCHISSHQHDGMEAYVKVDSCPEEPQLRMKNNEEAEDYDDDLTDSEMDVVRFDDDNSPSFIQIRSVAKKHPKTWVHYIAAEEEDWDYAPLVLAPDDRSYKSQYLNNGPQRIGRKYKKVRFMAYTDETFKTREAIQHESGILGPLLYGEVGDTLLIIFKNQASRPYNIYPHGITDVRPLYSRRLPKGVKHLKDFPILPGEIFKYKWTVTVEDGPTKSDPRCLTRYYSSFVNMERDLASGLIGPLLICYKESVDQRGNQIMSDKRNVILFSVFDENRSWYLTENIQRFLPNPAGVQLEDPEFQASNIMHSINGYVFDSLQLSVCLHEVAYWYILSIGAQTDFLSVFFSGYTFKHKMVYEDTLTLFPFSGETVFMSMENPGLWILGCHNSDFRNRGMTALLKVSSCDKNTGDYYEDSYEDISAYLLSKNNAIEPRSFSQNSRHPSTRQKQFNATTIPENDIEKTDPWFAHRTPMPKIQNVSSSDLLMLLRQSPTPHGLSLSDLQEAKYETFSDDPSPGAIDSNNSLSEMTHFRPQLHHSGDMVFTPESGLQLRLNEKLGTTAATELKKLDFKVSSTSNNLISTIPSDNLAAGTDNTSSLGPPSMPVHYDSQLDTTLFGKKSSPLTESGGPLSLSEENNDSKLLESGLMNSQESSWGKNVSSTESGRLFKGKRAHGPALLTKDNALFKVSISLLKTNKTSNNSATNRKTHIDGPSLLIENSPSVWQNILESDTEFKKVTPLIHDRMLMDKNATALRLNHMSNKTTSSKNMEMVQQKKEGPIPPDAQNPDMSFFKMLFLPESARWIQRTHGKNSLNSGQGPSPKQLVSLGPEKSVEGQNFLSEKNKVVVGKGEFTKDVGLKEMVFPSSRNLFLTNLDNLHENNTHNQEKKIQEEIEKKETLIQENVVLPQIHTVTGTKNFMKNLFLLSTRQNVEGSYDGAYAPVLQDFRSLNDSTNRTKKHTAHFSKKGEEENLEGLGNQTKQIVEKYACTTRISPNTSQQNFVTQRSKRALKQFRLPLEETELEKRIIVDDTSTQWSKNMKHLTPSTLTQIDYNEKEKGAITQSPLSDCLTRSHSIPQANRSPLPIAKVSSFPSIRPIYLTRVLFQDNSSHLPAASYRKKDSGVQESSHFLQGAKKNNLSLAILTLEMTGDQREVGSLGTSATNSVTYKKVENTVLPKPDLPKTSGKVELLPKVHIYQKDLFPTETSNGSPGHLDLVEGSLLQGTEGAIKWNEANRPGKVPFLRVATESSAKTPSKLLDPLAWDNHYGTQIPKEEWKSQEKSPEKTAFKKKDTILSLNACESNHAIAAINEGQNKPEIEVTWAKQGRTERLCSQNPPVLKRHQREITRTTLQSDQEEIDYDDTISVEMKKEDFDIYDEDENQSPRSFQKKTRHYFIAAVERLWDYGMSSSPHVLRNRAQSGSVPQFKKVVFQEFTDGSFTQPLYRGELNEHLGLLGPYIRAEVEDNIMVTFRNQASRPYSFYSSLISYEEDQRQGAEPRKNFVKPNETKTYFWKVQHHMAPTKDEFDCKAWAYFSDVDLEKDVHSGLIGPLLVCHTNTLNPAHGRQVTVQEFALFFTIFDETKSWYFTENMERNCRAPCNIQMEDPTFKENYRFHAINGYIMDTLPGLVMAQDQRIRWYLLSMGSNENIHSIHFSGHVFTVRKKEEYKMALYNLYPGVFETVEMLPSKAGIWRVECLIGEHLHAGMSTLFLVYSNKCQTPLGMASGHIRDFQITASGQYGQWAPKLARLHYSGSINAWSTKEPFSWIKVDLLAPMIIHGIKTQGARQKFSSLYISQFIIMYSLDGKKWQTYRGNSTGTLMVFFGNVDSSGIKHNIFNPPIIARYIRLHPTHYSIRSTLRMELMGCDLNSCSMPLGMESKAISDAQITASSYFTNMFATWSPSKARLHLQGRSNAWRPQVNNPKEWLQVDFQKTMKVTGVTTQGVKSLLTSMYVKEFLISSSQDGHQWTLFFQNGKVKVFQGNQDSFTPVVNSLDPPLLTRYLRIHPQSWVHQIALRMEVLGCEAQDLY

How the values were obtained:
Factor VIII heavy chain [1] = target: T1, Factor VIII heavy chain (human, UniProt P00451 20-1667, limits assumed); assay: ELISA: Factor VIII heavy chain (50 nM) coated on microtiter wells, biotinylated moAb216 added, detected with peroxidase-conjugated streptavidin, absorbance at 492 nm
T1 construct: only the heavy chain part stood in the assay; also called HCh
Experimental: Microtiter wells were coated with Factor VIII or its subunit (50 nM) in 20 mM Tris, and 0.15 M NaCl, pH 7.4, overnight at 4° C. The wells were washed with PBS containing 0.01% Tween 20 and were blocked with PBS containing 5% HSA for two hours at 37° C. The indicated concentrations of biotinylated-moAb216 were then added in 20 mM HEPES, 0.1 M NaCl, 5 mM CaCl₂, and 0.01% Tween 20, pH 7.2 (HBS-buffer) containing 1% HSA for two hours at 37° C. Bound IgG was quantified by the addition of peroxidase-conjugated streptavidin and O-phenylenediamine dihydrochloride substrate. Reactions were stopped by the addition of 2 M H₂SO₄, and absorbance was measured at 492 nm. The amount of nonspecific binding of anti-mouse peroxidase-conjugated IgG in the absence of moAb216 was <5% of the total signal. Specific binding was recorded after subtracting the nonspecific binding.

Factor VIII heavy chain [2] = target: T1, Factor VIII heavy chain; assay: ELISA, heavy chain immobilized on microtiter wells, biotinylated moAb216
Factor VIII heavy chain [3] = target: T1, Factor VIII heavy chain; assay: SPR, moAb216 immobilized on sensor chip

binding (Factor VIII heavy chain [1]): binds
binding (Factor VIII heavy chain [2]): binds
binding (Factor VIII heavy chain [3]): binds
B1: anti-Factor VIII monoclonal antibody moAb216 (antibody, V domains shown)
VH: EVRLVESGGGLVKPGGSLKLSCAASEFTFSSYSMSWVRQTPEKRLEWVASINSGGRTFYPDSVKGRFTISRDNARNILVLQMSSLRSEDTAMYYCARVIYYDYGAYALDYWGQGTSLTVSS
VL: EIVLTQSPALMAAYPGEKVTITCSVSSSISSSNLHWYQQKSETSPKLWIYGTSNLASGVPVRFSGSGSGTSYSLTISSMEAEDAATYYCQQWNIYPLTFGAGTKLELK
notes: It was biotinylated for the ELISAs and coupled covalently to a CM5 chip for SPR; also called moAb216 IgG; biotinylated moAb216
